# The list shows a part of the results.
# Sequences of proteins named here, by UniProt entry; tags and fusion partners are left off. A change or cut given only in a name is not applied to a line headed by its entry.
# UniProt Q99956: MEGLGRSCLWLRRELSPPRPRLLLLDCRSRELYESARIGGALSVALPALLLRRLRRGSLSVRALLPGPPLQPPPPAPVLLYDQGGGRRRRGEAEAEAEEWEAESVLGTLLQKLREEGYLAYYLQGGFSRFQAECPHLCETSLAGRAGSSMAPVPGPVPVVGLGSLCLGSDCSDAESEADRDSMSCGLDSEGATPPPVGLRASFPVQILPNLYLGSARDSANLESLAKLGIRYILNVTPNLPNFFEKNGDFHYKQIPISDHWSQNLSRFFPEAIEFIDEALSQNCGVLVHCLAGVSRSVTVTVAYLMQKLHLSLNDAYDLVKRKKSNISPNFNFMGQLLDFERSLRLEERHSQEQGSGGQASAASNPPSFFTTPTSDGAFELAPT
# UniProt Q6UX65: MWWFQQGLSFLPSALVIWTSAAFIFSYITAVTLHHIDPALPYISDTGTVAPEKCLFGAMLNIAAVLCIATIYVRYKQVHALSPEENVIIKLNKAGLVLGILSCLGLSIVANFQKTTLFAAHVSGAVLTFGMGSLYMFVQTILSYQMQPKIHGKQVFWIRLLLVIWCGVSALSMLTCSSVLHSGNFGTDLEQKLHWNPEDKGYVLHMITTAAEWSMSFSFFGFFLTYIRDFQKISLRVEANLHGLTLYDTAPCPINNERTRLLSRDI
# UniProt Q56P03: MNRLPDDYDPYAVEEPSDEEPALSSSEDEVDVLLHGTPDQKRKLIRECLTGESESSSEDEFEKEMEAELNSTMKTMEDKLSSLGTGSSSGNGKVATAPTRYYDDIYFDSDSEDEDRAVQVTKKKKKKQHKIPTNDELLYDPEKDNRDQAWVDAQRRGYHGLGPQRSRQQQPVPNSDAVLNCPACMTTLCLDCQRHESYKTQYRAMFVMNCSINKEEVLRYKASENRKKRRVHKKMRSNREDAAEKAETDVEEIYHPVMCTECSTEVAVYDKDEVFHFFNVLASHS
# UniProt Q13409, whole entry, looked up: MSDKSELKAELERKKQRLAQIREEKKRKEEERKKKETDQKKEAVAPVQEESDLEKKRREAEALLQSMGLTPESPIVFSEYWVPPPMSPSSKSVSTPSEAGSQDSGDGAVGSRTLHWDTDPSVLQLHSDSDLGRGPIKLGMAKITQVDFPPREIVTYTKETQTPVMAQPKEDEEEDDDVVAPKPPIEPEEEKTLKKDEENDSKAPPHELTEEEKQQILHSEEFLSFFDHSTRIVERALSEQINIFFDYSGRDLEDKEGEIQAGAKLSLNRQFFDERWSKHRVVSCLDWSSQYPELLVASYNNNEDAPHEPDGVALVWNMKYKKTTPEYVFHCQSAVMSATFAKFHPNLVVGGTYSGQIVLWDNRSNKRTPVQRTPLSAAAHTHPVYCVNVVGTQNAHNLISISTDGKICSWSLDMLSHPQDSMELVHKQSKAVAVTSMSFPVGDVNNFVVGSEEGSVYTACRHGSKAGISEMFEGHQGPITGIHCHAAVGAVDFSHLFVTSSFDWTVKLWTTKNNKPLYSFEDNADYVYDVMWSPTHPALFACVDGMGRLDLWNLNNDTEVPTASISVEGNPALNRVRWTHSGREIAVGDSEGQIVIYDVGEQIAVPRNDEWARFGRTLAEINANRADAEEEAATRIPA
# UniProt Q8NF50: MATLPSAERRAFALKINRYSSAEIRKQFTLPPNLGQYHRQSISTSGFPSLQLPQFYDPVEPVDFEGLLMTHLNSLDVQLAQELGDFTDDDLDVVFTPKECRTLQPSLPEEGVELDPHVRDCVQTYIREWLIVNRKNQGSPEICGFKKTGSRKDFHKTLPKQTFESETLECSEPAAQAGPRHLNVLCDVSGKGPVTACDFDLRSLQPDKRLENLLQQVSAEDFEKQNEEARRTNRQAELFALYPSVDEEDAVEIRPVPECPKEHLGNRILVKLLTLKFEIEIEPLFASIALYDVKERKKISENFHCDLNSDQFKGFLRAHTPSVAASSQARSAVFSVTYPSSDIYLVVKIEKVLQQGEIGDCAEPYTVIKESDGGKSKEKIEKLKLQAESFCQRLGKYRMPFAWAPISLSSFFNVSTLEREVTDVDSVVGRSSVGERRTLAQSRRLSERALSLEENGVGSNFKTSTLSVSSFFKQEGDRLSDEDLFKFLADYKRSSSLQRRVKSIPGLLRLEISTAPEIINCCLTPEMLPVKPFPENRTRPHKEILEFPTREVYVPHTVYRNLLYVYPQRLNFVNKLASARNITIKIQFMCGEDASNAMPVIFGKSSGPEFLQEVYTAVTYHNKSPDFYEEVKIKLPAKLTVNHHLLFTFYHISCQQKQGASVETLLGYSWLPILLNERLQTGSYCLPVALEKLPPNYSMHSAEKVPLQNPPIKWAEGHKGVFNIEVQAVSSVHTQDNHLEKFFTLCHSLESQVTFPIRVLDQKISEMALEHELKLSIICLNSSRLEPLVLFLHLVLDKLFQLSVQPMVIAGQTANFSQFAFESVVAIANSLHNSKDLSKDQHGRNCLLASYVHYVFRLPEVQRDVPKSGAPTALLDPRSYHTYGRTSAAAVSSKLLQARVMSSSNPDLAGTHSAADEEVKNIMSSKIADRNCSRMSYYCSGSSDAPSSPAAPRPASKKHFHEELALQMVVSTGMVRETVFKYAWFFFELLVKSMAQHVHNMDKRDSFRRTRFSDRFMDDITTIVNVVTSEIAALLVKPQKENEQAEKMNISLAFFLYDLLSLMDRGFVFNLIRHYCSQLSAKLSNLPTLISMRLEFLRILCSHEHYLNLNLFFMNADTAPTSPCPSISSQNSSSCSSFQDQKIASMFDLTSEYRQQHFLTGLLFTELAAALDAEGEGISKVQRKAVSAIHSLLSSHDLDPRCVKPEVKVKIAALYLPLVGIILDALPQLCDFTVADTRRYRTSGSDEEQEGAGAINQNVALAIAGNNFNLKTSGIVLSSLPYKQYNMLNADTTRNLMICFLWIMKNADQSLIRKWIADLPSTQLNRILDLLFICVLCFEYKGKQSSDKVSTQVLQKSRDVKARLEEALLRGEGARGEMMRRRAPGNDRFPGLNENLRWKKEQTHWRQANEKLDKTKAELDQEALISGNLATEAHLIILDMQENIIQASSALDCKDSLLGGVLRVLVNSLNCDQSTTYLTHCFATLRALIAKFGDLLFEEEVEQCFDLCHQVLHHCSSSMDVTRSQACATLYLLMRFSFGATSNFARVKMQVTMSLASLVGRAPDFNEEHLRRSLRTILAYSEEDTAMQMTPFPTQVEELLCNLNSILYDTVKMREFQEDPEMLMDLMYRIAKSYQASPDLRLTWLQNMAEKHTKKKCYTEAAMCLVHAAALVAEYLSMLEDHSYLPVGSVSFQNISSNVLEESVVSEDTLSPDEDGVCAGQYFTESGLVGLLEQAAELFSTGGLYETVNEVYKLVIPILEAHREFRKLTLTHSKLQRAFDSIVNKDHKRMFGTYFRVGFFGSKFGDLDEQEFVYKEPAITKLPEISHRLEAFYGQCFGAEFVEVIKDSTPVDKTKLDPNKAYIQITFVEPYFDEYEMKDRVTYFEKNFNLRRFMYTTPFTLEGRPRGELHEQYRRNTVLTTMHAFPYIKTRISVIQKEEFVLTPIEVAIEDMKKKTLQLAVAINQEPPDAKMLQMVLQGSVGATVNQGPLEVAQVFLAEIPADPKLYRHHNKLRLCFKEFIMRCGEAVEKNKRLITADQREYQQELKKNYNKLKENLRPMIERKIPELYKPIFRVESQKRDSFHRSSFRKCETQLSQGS
# UniProt Q96F86: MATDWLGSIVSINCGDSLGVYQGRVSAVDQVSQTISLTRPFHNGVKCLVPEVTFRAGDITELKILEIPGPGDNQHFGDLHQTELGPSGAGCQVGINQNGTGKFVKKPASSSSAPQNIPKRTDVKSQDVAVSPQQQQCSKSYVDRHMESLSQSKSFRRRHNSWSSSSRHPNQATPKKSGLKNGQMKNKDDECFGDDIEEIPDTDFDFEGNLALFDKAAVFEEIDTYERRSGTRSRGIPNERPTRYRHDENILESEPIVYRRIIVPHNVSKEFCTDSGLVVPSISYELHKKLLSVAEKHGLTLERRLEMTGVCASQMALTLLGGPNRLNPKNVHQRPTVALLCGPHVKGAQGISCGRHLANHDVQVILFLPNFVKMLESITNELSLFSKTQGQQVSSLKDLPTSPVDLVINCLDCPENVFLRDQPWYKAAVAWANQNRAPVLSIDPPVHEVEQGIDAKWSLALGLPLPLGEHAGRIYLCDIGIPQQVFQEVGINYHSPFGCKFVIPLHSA
# UniProt Q3B7T1: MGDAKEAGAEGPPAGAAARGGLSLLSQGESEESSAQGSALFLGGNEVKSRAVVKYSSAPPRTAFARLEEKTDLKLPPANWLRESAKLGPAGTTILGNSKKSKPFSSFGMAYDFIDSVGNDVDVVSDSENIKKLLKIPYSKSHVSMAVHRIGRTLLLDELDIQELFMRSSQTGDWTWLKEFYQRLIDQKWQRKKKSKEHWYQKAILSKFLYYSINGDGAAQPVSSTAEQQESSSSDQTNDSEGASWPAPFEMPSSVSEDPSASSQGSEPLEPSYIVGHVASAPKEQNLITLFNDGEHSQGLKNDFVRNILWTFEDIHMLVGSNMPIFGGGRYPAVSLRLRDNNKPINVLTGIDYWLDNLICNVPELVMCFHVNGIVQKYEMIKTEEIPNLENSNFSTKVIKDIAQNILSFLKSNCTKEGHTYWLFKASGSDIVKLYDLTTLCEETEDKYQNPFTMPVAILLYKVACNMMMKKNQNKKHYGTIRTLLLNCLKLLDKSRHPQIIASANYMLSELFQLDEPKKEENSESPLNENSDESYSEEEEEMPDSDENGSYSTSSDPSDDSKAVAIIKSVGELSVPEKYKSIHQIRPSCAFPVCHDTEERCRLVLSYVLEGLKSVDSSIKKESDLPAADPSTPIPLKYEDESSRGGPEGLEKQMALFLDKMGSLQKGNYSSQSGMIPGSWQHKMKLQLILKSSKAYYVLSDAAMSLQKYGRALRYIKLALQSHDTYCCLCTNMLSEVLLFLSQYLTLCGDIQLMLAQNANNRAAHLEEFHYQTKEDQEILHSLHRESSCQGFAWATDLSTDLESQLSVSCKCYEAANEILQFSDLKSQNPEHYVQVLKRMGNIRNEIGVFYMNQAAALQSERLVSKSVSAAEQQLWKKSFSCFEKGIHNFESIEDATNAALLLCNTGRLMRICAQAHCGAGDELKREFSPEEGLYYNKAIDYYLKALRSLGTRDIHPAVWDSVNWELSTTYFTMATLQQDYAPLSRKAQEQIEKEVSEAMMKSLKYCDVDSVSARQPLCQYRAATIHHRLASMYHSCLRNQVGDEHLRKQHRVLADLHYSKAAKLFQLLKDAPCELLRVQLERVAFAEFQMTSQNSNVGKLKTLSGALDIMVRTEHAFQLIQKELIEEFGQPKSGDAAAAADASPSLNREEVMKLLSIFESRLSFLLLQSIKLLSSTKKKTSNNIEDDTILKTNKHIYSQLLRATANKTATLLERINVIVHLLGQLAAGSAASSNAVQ
# UniProt Q9H410: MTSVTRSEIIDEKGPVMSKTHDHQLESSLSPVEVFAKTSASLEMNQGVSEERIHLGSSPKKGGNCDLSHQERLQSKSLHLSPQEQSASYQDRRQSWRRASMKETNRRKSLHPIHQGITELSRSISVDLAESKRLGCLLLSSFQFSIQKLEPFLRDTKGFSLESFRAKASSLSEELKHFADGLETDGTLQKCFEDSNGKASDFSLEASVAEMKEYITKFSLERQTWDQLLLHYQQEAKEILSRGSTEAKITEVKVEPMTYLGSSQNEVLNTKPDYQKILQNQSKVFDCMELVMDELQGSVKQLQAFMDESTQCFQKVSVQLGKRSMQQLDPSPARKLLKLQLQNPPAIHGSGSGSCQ
# How the values were obtained:
# Assay in all cases: log2 fold change, soluble protein after heating vs DMSO (PISA); higher = thermal stabilisation; K562 cells, 10 uM, 30 min; active = over 0.2 and 3.5 SD of the protein, either way, in both replicates (recomputed)
# [1] = compound: CS(=O)(=O)c1ccc(-c2cnc(N)c(C(=O)Nc3ccccc3)n2)cc1
# In short: (§1)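 K562 cells at 2×10^6 cells/mL were given 10 μM compound for 30 min. Aliquots then went through 3 min of heating across 48°C-58°C, were pooled, and were extracted in PBS with 0.5% NP-40 at 4°C, and the supernatant after 21,000xg for 90 min was quantified by TMTpro 16plex LC-MS/MS with channel sums equalised. Thermal stability relative to control samples, from duplicates, is given as log2 fold change.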
# crizotinib = compound: C[C@@H](Oc1cc(-c2cnn(C3CCNCC3)c2)cnc1N)c1c(Cl)ccc(F)c1Cl [crizotinib]
# In short: as §1
# [2] = compound: C[C@@H]1COCCN1C2=NC(=NC(=C2)C3(CC3)S(=O)(=O)C)C4=C5C=CNC5=CC=C4
# In short: as §1
# duvelisib = compound: C[C@H](Nc1ncnc2nc[nH]c12)c1cc2cccc(Cl)c2c(=O)n1-c1ccccc1 [duvelisib]
# In short: as §1
# [3] = compound: Cc1cc(SCc2sc(-c3ccc(C(F)(F)F)cc3)nc2C)ccc1OCC(=O)O
# In short: as §1
# doramapimod = compound: Cc1ccc(-n2nc(C(C)(C)C)cc2NC(=O)Nc2ccc(OCCN3CCOCC3)c3ccccc23)cc1 [doramapimod]
# In short: as §1
# ispinesib = compound: Cc1ccc(C(=O)N(CCCN)[C@@H](c2nc3cc(Cl)ccc3c(=O)n2Cc2ccccc2)C(C)C)cc1 [ispinesib]
# In short: as §1
# nilotinib = compound: Cc1cn(-c2cc(NC(=O)c3ccc(C)c(Nc4nccc(-c5cccnc5)n4)c3)cc(C(F)(F)F)c2)cn1 [nilotinib]
# In short: as §1
# [4] = compound: Cc1nc(Nc2n[nH]c3c2CN(C(=O)N[C@H](CN(C)C)c2ccccc2)C3(C)C)c2sccc2n1
# In short: as §1
# dasatinib = compound: Cc1nc(Nc2ncc(C(=O)Nc3c(C)cccc3Cl)s2)cc(N2CCN(CCO)CC2)n1 [dasatinib]
# In short: as §1
# [5] = compound: Cc1ncc(-c2ccnc(Nc3ccc(S(C)(=O)=O)cc3)n2)n1C(C)C
# In short: as §1
# [6] = compound: Cn1cc(-c2ccc3nnc(C(F)(F)c4ccc5ncccc5c4)n3n2)cn1
# In short: as §1
# [7] = compound: C[C@H](C1=CC=C(C=C1)C(=O)NC2=C3C=CNC3=NC=C2)N
# In short: as §1
# tozasertib = compound: Cc1cc(Nc2cc(N3CCN(C)CC3)nc(Sc3ccc(NC(=O)C4CC4)cc3)n2)n[nH]1 [tozasertib]
# In short: as §1
# [8] = compound: Cn1cc(-c2ccc3c(c2)CCN3C(=O)Cc2cccc(C(F)(F)F)c2)c2c(N)ncnc21
# In short: as §1
# tipifarnib = compound: Cn1cncc1[C@@](N)(c1ccc(Cl)cc1)c1ccc2c(c1)c(-c1cccc(Cl)c1)cc(=O)n2C [tipifarnib]
# In short: as §1
# mubritinib = compound: FC(F)(F)c1ccc(/C=C/c2nc(COc3ccc(CCCCn4ccnn4)cc3)co2)cc1 [mubritinib]
# In short: as §1
# gandotinib = compound: Cc1cc(Nc2cc(CN3CCOCC3)c3nc(C)c(Cc4ccc(Cl)cc4F)n3n2)n[nH]1 [gandotinib]
# In short: as §1
# [9] = compound: Cc1cccc(CC(=O)N2CCc3c2ccc(-c2cn(C)c4ncnc(N)c24)c3F)n1
# In short: as §1
# bafetinib = compound: Cc1ccc(NC(=O)c2ccc(CN3CC[C@H](N(C)C)C3)c(C(F)(F)F)c2)cc1Nc1nccc(-c2cncnc2)n1 [bafetinib]
# In short: as §1
Target,log2 fold change [1],log2 fold change (crizotinib),log2 fold change [2],log2 fold change (duvelisib),log2 fold change [3],log2 fold change (doramapimod),log2 fold change (ispinesib),log2 fold change (nilotinib),log2 fold change [4],log2 fold change (dasatinib),log2 fold change [5],log2 fold change [6],log2 fold change [7],log2 fold change (tozasertib),log2 fold change [8],log2 fold change (tipifarnib),log2 fold change (mubritinib),log2 fold change (gandotinib),log2 fold change [9],log2 fold change (bafetinib)
DUSP9 (UniProt Q99956),inactive: 0.278,inactive: -0.02,inactive: 0.078,inactive: -0.007,inactive: 0.119,inactive: 0.478,inactive: 0.001,inactive: -0.36,inactive: 0.024,inactive: -0.246,inactive: -0.03,inactive: -0.091,,,,,,,,
DRAM2 (UniProt Q6UX65),inactive: 0.011,inactive: -0.763,inactive: 0.034,,,inactive: -0.157,,,,,,,inactive: -0.054,inactive: -0.072,inactive: -0.043,inactive: 0.25,inactive: 0.044,,,
DNPEP (UniProt B9ZVU2),inactive: 0.022,inactive: 0.031,,inactive: 0.211,inactive: 0.15,inactive: -0.003,,,,inactive: -0.027,,,inactive: -0.005,inactive: 0.085,inactive: -0.047,inactive: -0.098,inactive: -0.005,inactive: 0.089,inactive: 0.013,
EAPP (UniProt Q56P03),inactive: -0.12,inactive: -0.061,,inactive: 0.068,inactive: -0.015,inactive: 0.012,inactive: 0.229,inactive: -0.087,inactive: 0.123,inactive: -0.122,inactive: 0.059,inactive: -0.228,inactive: -0.004,inactive: 0.066,inactive: -0.138,inactive: 0.03,inactive: 0.07,inactive: -0.061,inactive: -0.069,
DYNC1I2 isoform 2 (UniProt Q13409),inactive: 0.185,inactive: -0.05,inactive: -0.02,,,inactive: -0.079,inactive: 0.06,,,,,inactive: -0.067,active: -0.647,,inactive: -0.311,inactive: 0.177,inactive: 0.067,,,inactive: -0.038
DOCK8 (UniProt Q8NF50),inactive: 0.216,inactive: -0.011,inactive: -0.075,,inactive: -0.036,inactive: -0.004,inactive: -0.402,inactive: 0.069,inactive: -0.057,inactive: 0.052,inactive: -0.126,inactive: -0.067,active: 0.67,,inactive: -0.14,,inactive: 0.021,inactive: 0.146,inactive: -0.055,inactive: -0.076
EDC3 (UniProt Q96F86),inactive: 0.002,inactive: -0.237,active: -0.439,,inactive: 0.066,inactive: 0.05,inactive: -0.121,inactive: -0.142,inactive: -0.127,inactive: -0.006,inactive: -0.151,inactive: -0.006,inactive: -0.014,,inactive: -0.019,inactive: -0.035,inactive: 0,inactive: -0.023,inactive: -0.013,inactive: -0.022
EDRF1 (UniProt Q3B7T1),inactive: 0.024,,inactive: 0.055,,inactive: 0.134,,inactive: -0.24,,,inactive: -0.157,,inactive: -0.114,inactive: -0.008,,inactive: -0.275,,inactive: 0.045,inactive: 0.098,inactive: -0.209,inactive: -0.04
DYNC1I2 isoform 5 (UniProt Q13409),inactive: 0.026,inactive: 0.055,inactive: -0.035,,inactive: -0.007,inactive: -0.011,inactive: 0.028,inactive: 0.015,inactive: 0.002,inactive: -0.012,inactive: 0.011,inactive: -0.008,inactive: -0.007,,inactive: 0.003,inactive: -0.038,inactive: 0.046,inactive: 0.027,inactive: -0.018,inactive: -0.071
DSN1 (UniProt Q9H410),inactive: -0.015,inactive: -0.016,inactive: 0.086,,inactive: -0.07,inactive: 0.007,inactive: 0.055,inactive: 0.082,inactive: -0.217,inactive: -0.242,inactive: 0.104,inactive: 0.059,inactive: -0.05,,inactive: 0.041,inactive: 0.027,inactive: -0.03,,,inactive: 0.063
DYSF isoform 13 (UniProt O75923),inactive: -0.089,inactive: 0.01,inactive: -0.059,,,inactive: -0.027,inactive: -0.124,inactive: 0.111,inactive: -0.041,,inactive: 0.162,inactive: -0.05,,inactive: -0.018,,,inactive: 0.15,inactive: 0.029,inactive: 0.05,inactive: 0.162

# Some of the entries above, set out differently.
Target | log2 fold change [1] | log2 fold change (crizotinib) | log2 fold change [2] | log2 fold change (duvelisib) | log2 fold change [3] | log2 fold change (doramapimod) | log2 fold change (ispinesib) | log2 fold change (nilotinib) | log2 fold change [4] | log2 fold change (dasatinib) | log2 fold change [5] | log2 fold change [6] | log2 fold change [7] | log2 fold change (tozasertib) | log2 fold change [8] | log2 fold change (tipifarnib) | log2 fold change (mubritinib) | log2 fold change (gandotinib) | log2 fold change [9] | log2 fold change (bafetinib)
DSN1 (UniProt Q9H410) | inactive: -0.015 | inactive: -0.016 | inactive: 0.086 |  | inactive: -0.07 | inactive: 0.007 | inactive: 0.055 | inactive: 0.082 | inactive: -0.217 | inactive: -0.242 | inactive: 0.104 | inactive: 0.059 | inactive: -0.05 |  | inactive: 0.041 | inactive: 0.027 | inactive: -0.03 |  |  | inactive: 0.063
DYSF isoform 13 (UniProt O75923) | inactive: -0.089 | inactive: 0.01 | inactive: -0.059 |  |  | inactive: -0.027 | inactive: -0.124 | inactive: 0.111 | inactive: -0.041 |  | inactive: 0.162 | inactive: -0.05 |  | inactive: -0.018 |  |  | inactive: 0.15 | inactive: 0.029 | inactive: 0.05 | inactive: 0.162

# — the supplement of paper PMC10849652
